From publication PMC7990198
No constants are given. Whether binding was seen depends on the method and setting. A result given as binding can be weak or reduced; the word gives no strength. Tags and fused reporters may be left off the sequences shown.

biological target: T1, Full-length Sds21 fused to the Gal4 BD (S. pombe) (UniProt P23880); assay: two-hybrid; Gal4 AD fusions of Ppn1 (pACT2.1) with Gal4 BD fusions of Dis2, Swd22 or Sds21 (pAS2-1) in S. cerevisiae Y190; two reporters: lacZ (X-gal filter lift, 30°C, up to 6 h) and histidine prototrophy (growth on -trp-leu-his + 50 mM 3AT)
T1 sequence: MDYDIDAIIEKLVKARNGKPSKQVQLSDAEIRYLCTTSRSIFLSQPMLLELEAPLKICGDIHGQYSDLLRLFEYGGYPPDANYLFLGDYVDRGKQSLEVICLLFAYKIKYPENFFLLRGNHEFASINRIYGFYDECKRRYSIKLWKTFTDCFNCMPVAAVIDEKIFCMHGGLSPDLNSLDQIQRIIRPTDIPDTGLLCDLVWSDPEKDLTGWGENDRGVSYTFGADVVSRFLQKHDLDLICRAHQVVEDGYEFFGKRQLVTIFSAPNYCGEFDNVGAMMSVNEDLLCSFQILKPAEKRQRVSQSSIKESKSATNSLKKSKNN

Row | binding | Substance
1 | no binding | Full-length AD-Ppn1 V508A (S. pombe)
2 | no binding | Full-length AD-Ppn1 S507D-S509D double-mutation (S. pombe)
3 | no binding | Full-length AD-Ppn1 W510A (S. pombe)
4 | binds | Full-length AD-Ppn1 D515A-L516A double-mutant (S. pombe)
5 | binds | Full-length Ppn1 (aa 1–710) fused to the Gal4 AD (S. pombe)
